Measurements reported in article PMC11676169.

Chains of the proteins cited; added tags and fusions are not shown.
UniProt P12956: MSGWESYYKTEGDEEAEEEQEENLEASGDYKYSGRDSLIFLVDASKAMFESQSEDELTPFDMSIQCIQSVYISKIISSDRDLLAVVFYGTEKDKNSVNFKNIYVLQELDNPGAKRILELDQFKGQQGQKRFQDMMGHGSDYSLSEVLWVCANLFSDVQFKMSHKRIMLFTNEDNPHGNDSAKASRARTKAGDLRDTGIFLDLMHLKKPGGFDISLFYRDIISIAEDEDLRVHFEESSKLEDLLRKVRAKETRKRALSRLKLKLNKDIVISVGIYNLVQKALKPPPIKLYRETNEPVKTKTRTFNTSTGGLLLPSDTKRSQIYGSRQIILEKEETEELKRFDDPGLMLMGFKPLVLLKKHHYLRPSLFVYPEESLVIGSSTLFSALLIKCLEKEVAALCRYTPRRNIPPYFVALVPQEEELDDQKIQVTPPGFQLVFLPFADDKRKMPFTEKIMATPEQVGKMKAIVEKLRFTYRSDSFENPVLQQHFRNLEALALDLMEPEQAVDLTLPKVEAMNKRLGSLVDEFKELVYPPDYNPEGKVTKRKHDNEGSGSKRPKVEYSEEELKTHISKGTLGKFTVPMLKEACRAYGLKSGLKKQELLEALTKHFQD
UniProt P13010: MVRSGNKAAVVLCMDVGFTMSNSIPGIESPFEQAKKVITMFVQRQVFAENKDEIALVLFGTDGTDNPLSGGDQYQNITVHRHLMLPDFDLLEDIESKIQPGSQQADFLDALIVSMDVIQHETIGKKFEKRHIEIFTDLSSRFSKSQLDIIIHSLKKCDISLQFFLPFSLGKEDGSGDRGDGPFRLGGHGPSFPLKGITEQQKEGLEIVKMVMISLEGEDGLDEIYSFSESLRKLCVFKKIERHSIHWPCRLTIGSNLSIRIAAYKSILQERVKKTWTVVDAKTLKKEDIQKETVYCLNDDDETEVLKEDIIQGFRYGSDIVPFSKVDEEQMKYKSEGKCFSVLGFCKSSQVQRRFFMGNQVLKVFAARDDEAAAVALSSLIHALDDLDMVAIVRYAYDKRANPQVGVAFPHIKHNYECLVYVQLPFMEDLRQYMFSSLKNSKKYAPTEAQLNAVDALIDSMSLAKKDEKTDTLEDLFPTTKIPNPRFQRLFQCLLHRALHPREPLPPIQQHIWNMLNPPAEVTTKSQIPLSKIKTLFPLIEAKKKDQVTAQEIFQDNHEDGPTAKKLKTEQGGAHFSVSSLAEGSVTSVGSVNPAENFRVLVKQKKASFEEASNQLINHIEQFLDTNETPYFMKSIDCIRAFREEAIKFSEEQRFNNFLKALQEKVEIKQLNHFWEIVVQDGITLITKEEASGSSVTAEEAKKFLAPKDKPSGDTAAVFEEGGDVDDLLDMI

Molecular target: T1, double-tagged BCAT1 (BCAT1 myc-DDK), stably expressed in CUTLL1 T-ALL cells (UniProt P54687)
T1 sequence: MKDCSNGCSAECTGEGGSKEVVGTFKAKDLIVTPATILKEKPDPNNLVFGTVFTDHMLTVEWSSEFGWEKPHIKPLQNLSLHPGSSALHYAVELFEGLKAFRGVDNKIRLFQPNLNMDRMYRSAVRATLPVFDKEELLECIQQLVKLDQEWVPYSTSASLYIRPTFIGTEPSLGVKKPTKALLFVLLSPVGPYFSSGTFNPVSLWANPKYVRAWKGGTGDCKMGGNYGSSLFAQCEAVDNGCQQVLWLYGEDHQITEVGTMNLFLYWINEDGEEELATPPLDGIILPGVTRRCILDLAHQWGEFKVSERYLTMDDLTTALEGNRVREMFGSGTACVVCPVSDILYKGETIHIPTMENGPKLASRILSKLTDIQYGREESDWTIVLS
Assay: affinity purification with mass spectrometry; tandem affinity purification from cytoplasmic extracts of CUTLL1 cells expressing BCAT1 myc/DDK (NaCl adjusted to 150 mM): anti-FLAG M2 beads, FLAG peptide elution, then anti-c-Myc beads, c-Myc peptide elution; LC-MS/MS; control: mock-transduced CUTLL1

Substance | binding
KU70 (XRCC6), endogenous in CUTLL1 cells (from UniProt P12956 1-609) | binds
KU80 (XRCC5), endogenous in CUTLL1 cells (from UniProt P13010 1-732) | binds

No constants are given. Whether binding was seen depends on the method and setting. In cells and extracts the contact can be indirect. A yes stands for co-enrichment or nearness to the bait. Other partners may have been found. Where a sequence is shown, tags or fusion partners need not be part of it.
